This assay concerns the target PDZ1/2 domain (Homo sapiens, UniProt P78352). To be noted: His beads, eluate by SDS-PAGE.

Amino acid sequences for entries named in this document (tags omitted). Residues count along the entry.
UniProt P78352, 65-246: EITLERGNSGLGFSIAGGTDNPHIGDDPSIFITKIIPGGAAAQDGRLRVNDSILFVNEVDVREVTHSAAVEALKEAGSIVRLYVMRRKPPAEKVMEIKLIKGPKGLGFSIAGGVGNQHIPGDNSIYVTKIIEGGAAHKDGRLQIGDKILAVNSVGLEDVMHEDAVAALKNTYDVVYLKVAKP

“Also recorded” adds a separate entry of the source.

On to `CC[C@H](C)[C@H](NC(=O)[C@H](CCC(=O)O)NC(=O)[C@@H](NC(=O)[C@H](CC(=O)O)NC(=O)[C@H](CC(C)C)NC(=O)[C@H](CC(C)C)NC(=O)[C@H](CCCCN)NC(=O)[C@H](CCC(=O)O)NC(=O)[C@H](Cc1ccc(O)cc1)NC(=O)[C@H](CCCNC(=N)N)NC(=O)[C@H](CCCNC(=N)N)NC(=O)[C@H](CCCNC(=N)N)NC(=O)[C@H](CCC(N)=O)NC(=O)[C@H](CCCNC(=N)N)NC(=O)[C@H](CCCNC(=N)N)NC(=O)[C@H](CCCCN)NC(=O)[C@H](CCCCN)NC(=O)[C@H](CCCNC(=N)N)NC(=O)CNC(=O)[C@@H](N)Cc1ccc(O)cc1)[C@@H](C)O)C(=O)O` [P5], for which the “binding to PDZ1/2 domain (pull-down)” value was “can bind to PDZ1/2 domain; also recorded: capable of binding to PDZ1/2 domain”.
